Reference: PubChem BioAssay AID652259 (Drosophila RNAi Screening Center, 2013)
The deposit covers about 22,000 reagents; below is an unselected part of those that have a named target and a result. Of all reagents, 233 (1.1%) got an active call. 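Light values are raw, unnormalised plate reads; the ratio scores behind the reporter calls were not deposited.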 Entries without a mark were called inactive. A plus sign joins genes that one reagent is predicted to hit. Not stated in the record: the amount of reagent, the time to read-out, the dose of the treatment.

Test: 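Knock-downs that push a Wingless-driven reporter up or down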 (primary screen)
Cells: Drosophila clone 8 imaginal disc epithelial cells
Reagent: long dsRNA against Drosophila genes
Challenge: pathway stimulated by co-transfected Wingless expression plasmid
Measurement: 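Firefly luciferase from a tcf-site Wingless reporter, measured alongside co-transfected Renilla luciferase that tracks transfection; pathway stimulated by a Wingless plasmid; the firefly-to-Renilla ratio is not deposited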
Direction: firefly reporter light: higher = more Wg reporter light, before normalisation; Renilla control light: higher = more transfected or surviving cells
Active means: 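a knock-down is a candidate when at least two out of four statistical tests show it departing from its plate mean; one test alone signals a weak candidate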
Calls: active = candidate regulator (raises or lowers reporter); inactive = not a candidate

Orc4 (Origin recognition complex subunit 4) [DRSC04634] — firefly reporter light, replicate 1: 12451; Renilla control light, replicate 1: 2522
row (relative of woc) [DRSC07076] — reporter change call, replicate 1: Wg reporter activity raised (active); firefly reporter light, replicate 1: 13814; Renilla control light, replicate 1: 1696
row (relative of woc) [DRSC07077] — firefly reporter light, replicate 1: 6227; Renilla control light, replicate 1: 1488
spt4 [DRSC07696] — firefly reporter light, replicate 1: 11705; Renilla control light, replicate 1: 3764
Arp10 (Actin-related protein 10) [DRSC19448] — firefly reporter light, replicate 1: 1408; firefly reporter light, replicate 2: 6243; Renilla control light, replicate 1: 656; Renilla control light, replicate 2: 1746
CaMKII (Calcium/calmodulin-dependent protein kinase II) [DRSC17214] — firefly reporter light, replicate 1: 2240; firefly reporter light, replicate 2: 7212; Renilla control light, replicate 1: 960; Renilla control light, replicate 2: 2330
Skp2 + CG14645 [DRSC12231] — firefly reporter light, replicate 1: 19379; Renilla control light, replicate 1: 6312
CG12237 [DRSC19449] — firefly reporter light, replicate 1: 4678; firefly reporter light, replicate 2: 8790; Renilla control light, replicate 1: 1712; Renilla control light, replicate 2: 3356
CG12237 [DRSC22256] — firefly reporter light, replicate 1: 3.81e5; firefly reporter light, replicate 2: 4.08e5; Renilla control light, replicate 1: 1.37e5; Renilla control light, replicate 2: 1.57e5
CG5697 [DRSC15858] — firefly reporter light, replicate 1: 19898; Renilla control light, replicate 1: 4427
Cpr78Ca (Cuticular protein 78Ca) [DRSC11651] — firefly reporter light, replicate 1: 17104; Renilla control light, replicate 1: 6064
GstE9 (Glutathione S transferase E9) [DRSC06679] — firefly reporter light, replicate 1: 7819; Renilla control light, replicate 1: 2055
unc-45 (uncoordinated 45) [DRSC15449] — firefly reporter light, replicate 1: 18306; Renilla control light, replicate 1: 5104
CCT4 (Chaperonin containing TCP1 subunit 4) [DRSC02865] — firefly reporter light, replicate 1: 3274; firefly reporter light, replicate 2: 6185; Renilla control light, replicate 1: 893; Renilla control light, replicate 2: 2346
CG9933 [DRSC03276] — firefly reporter light, replicate 1: 2995; firefly reporter light, replicate 2: 5426; Renilla control light, replicate 1: 1021; Renilla control light, replicate 2: 2109
CG3565 [DRSC04389] — firefly reporter light, replicate 1: 13712; Renilla control light, replicate 1: 3893
Nep2 (Neprilysin 2) [DRSC12126] — firefly reporter light, replicate 1: 8393; Renilla control light, replicate 1: 2160
Nep2 (Neprilysin 2) [DRSC21398] — firefly reporter light, replicate 1: 3.99e5; firefly reporter light, replicate 2: 4.50e5; Renilla control light, replicate 1: 2.20e5; Renilla control light, replicate 2: 1.63e5
CG31639 [DRSC00910] — firefly reporter light, replicate 1: 14435; Renilla control light, replicate 1: 9365
sut3 (sugar transporter 3) [DRSC07702] — firefly reporter light, replicate 1: 4152; firefly reporter light, replicate 2: 7321; Renilla control light, replicate 1: 1111; Renilla control light, replicate 2: 2464
SNCF (SoxNeuro Co-Factor) [DRSC10115] — firefly reporter light, replicate 1: 4709; Renilla control light, replicate 1: 1904
CG7084 [DRSC16194] — firefly reporter light, replicate 1: 3817; firefly reporter light, replicate 2: 8008; Renilla control light, replicate 1: 1691; Renilla control light, replicate 2: 2682
Srp9 (Signal recognition particle 9) [DRSC10973] — firefly reporter light, replicate 1: 2352; firefly reporter light, replicate 2: 5847; Renilla control light, replicate 1: 1280; Renilla control light, replicate 2: 2000
CG34253 + lncRNA:CR32194 [DRSC09531] — firefly reporter light, replicate 1: 2908; Renilla control light, replicate 1: 1548
CG13398 [DRSC02268] — firefly reporter light, replicate 1: 1782; firefly reporter light, replicate 2: 6666; Renilla control light, replicate 1: 759; Renilla control light, replicate 2: 3072
Prosalpha3T (Proteasome alpha3 subunit, Testis-specific) [DRSC15226] — firefly reporter light, replicate 1: 6281; Renilla control light, replicate 1: 2952
Pglym78 (Phosphoglyceromutase 78) [DRSC16787] — firefly reporter light, replicate 1: 3273; firefly reporter light, replicate 2: 5884; Renilla control light, replicate 1: 1344; Renilla control light, replicate 2: 2352
caly (calypso) [DRSC07182] — firefly reporter light, replicate 1: 15416; Renilla control light, replicate 1: 4837
CG13954 [DRSC06442] — firefly reporter light, replicate 1: 1974; firefly reporter light, replicate 2: 6903; Renilla control light, replicate 1: 490; Renilla control light, replicate 2: 1800
NANS (N-acetylneuraminic acid synthase) [DRSC15743] — firefly reporter light, replicate 1: 10416; Renilla control light, replicate 1: 3024
CG17202 [DRSC15194] — firefly reporter light, replicate 1: 15984; Renilla control light, replicate 1: 2250
barc (barricade) [DRSC11792] — firefly reporter light, replicate 1: 7520; Renilla control light, replicate 1: 1457
